Publication PMC4639722, “Dihydrotanshinone-I interferes with the RNA-binding activity of HuR affecting its post-transcriptional function” (Scientific Reports, 2015)
Construct, isoform or probe ends are uncertain for at least one entry. For part of these data: Results from cells or extracts need not show a direct contact. For part of these data: At least one verdict was read from the data and is not stated in words by the source.

By UniProt entry, the sequences of proteins in these tests, tags left out. Where a name states a change or a piece, a line headed by the entry shows the natural chain unless it says otherwise.
UniProt Q15717, whole entry: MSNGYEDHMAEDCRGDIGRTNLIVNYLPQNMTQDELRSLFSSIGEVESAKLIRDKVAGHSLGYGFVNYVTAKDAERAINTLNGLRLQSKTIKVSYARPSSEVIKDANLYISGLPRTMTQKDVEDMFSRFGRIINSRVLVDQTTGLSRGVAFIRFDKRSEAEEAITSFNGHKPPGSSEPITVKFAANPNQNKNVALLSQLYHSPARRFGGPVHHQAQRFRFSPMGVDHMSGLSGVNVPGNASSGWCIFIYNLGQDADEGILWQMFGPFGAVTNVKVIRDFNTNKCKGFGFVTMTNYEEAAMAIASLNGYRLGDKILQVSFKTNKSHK
UniProt Q14103: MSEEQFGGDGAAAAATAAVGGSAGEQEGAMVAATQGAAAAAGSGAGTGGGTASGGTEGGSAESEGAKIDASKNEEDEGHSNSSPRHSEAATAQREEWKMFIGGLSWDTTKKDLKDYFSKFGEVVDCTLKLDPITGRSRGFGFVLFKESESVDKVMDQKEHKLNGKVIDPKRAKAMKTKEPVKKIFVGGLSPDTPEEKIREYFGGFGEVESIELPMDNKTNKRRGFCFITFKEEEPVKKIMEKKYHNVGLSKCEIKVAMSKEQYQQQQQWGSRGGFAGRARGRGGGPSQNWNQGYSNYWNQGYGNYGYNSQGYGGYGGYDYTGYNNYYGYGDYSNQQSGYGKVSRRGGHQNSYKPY

Key:
[1] = biological target: HuR full length (rHuR) (human) (UniProt Q15717); experiment: AlphaScreen; details: no DHTS, constant from ref 23 used for Ki fits; recombinant protein; residues 1-326; protein details: cMyc-His; label: 5'-biotin
[2] = biological target: hnRNP-D/AUF1, endogenous MCF-7 (human) (UniProt Q14103); experiment: pull-down; details: 0.5 uM RNA, DHTS difference only upon LPS; pull-down lysates: 20 mM HEPES pH 7.5, 50 mM KCl, 0.5 ug BSA, 0.25% glycerol, 4 C; protein in an extract; label: 5'-biotin
[3] = biological target: HuR, endogenous MCF-7 (human) (UniProt Q15717); experiment: pull-down; details: 0.5 uM RNA, reduced in lysate of DHTS-treated cells; pull-down lysates: 20 mM HEPES pH 7.5, 50 mM KCl, 0.5 ug BSA, 0.25% glycerol, 4 C; protein in an extract; label: 5'-biotin

With AUUAUUUAUUAUUUAUUUAUUAUUUA [BiTNF] the Kd [1] was 2.5 nM, the binding result [2] was “binds” and the binding result [3] was “binds”.
